Data: PubChem BioAssay AID2685 (National Center for Advancing Translational Sciences (NCATS), 2010)
Some of the results follow. Shown are side measurements of this screen, not its main read-out; they come without a call. The list favours compounds with an active or inconclusive main result. The note in brackets gives the kind of curve behind each potency; many fits are weak.

Assay: qHTS Assay for Lipid Storage Modulators in Drosophila S3 Cells;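 for cell number change: cells counted by Cell Tracker Red CMTPX staining in the red channel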
Details: BODIPY lipid droplet fluorescence, 18-24 h; for cell number change: measured here: cell count max response, cells fed with added oleic acid
In short: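 Drosophila S3 cells loaded with oleic acid (400 uM, as added) and compounds at several concentrations; lipid droplets imaged by 488-nm laser-scanning cytometry, 500–530 nm intensity and object ratio to cell channel. Percent activity normalized to 20 uM Triacsin C.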

[1] = measured here: lipid fluorescence (Fed channel) AC50, cells fed with added oleic acid
[2] = measured here: cell number channel AC50, cells fed with added oleic acid

Structure (SMILES)	cell number change [%]	AC50 [1]	AC50 [2]
O=C(c1ccc(F)cc1)N1CCC(C(=O)N2CCN(S(=O)(=O)c3cccc(F)c3)CC2)CC1	18.3	29.1 µM [rising, single point]	
COC(=O)C1CC(O)CN1C(=O)Nc1cccc(C(F)(F)F)c1 (configuration not stated)	-18.2		
CC(=O)C1C(c2ccc(Cl)cc2)NC(=O)NC1(O)C(F)(F)F (configuration not stated)	-60.3	18.4 µM [falling, partial curve]	8.2 µM [falling, partial curve]
COc1ccccc1C(=O)Nc1ccnn1C1CCN(C)CC1	17.7	0.58 µM [rising, single point]	
O=C(COC(=O)/C=C/c1cccc(C(F)(F)F)c1)NC1CCS(=O)(=O)C1 (configuration not stated)	3.36	3.26 µM [rising, single point]	
CCCOC(=O)c1cccc(NC(=O)C(C)(C)C)c1		6.51 µM [falling, single point]	
CCOC(=O)CC(NC(=O)c1ccco1)c1ccc(OC)cc1 (configuration not stated)	36.9		
O=C(O)COc1ccc(/C=N/n2cnc3scc(-c4cccs4)c3c2=O)cc1	150	6.51 µM [rising, partial curve]	16.4 µM [rising, partial curve]
COc1ccc(Cn2cc3c(-c4ccc(F)cc4)nnc-3c3cc(OC)c(OC)cc32)cc1	-80.7	7.31 µM [falling, partial curve]	13 µM [falling, partial curve]
O=C(NCCNc1ccc([N+](=O)[O-])cc1)c1ccccc1F	-15.3		
Cn1c(CNC(=O)c2ccco2)nnc1SCCOc1ccccc1	21.4	1.64 µM [rising, full curve]	
O=C1Nc2ccccc2C(=O)N2[C@H](c3ccc(F)cc3)[C@@H]3C(=O)N(Cc4ccccc4)C(=O)[C@@H]3[C@H]12	-6.8	6.51 µM [rising, single point]	
COc1cc(OC)cc(C(=O)NCCNC(=O)c2ccccc2)c1	-12.8		
CC(C)c1ccc(C2=NN(c3ccccc3)C(=O)CC2)cc1	-36.7	14.6 µM [falling, single point]	18.4 µM [falling, single point]
COC(=O)[C@@H](C)NC(=O)c1ccc2oc(CCc3ccccc3)nc2c1	-3.69	0.00461 µM [falling, full curve, poor fit]	
COc1ccc(CN(C)C(=O)CNC(=O)c2cccs2)c(OC)c1	-12.3		
Cc1ccc(-c2cc(C(=O)N/N=C\c3cnn(C)c3C)c3ccccc3n2)cc1C		3.66 µM [rising, partial curve]	0.0651 µM [rising, full curve, poor fit]
N/C(CSc1ccccn1)=N\OCc1c(Cl)cccc1Cl	4.97	2.59 µM [rising, single point]	
O=C(O)/C=C/c1cn(-c2ccccc2)nc1-c1ccc(-c2ccc([N+](=O)[O-])cc2)o1	26.3	20.6 µM [rising, single point]	
CCOC(=O)N1CCN(C(=O)CS(=O)(=O)c2cn(Cc3cccc(F)c3)c3ccccc23)CC1			2.91 µM [rising, single point]
COCCn1c(=O)[nH]c2cc(C(=O)N3CCN(c4ccccc4)CC3)ccc2c1=O	-1.28	3.66 µM [falling, full curve]	

In a second layout: four of the compounds above.

| Structure (SMILES) | cell number change [%] | AC50 [1] | AC50 [2] |
| --- | --- | --- | --- |
| O=C(COC(=O)/C=C/c1cccc(C(F)(F)F)c1)NC1CCS(=O)(=O)C1 (configuration not stated) | 3.36 | 3.26 µM [rising, single point] |  |
| CCCOC(=O)c1cccc(NC(=O)C(C)(C)C)c1 |  | 6.51 µM [falling, single point] |  |
| CCOC(=O)CC(NC(=O)c1ccco1)c1ccc(OC)cc1 (configuration not stated) | 36.9 |  |  |
| O=C(O)COc1ccc(/C=N/n2cnc3scc(-c4cccs4)c3c2=O)cc1 | 150 | 6.51 µM [rising, partial curve] | 16.4 µM [rising, partial curve] |

(more compounds)

Structure (SMILES)	cell number change [%]	AC50 [1]	AC50 [2]
N#CCC(=O)N/N=C/c1ccc(OCc2ccccc2)cc1	-20.3		
Cc1cccc(OCCCC(=O)NCC(=O)Nc2cccc(C)c2C)c1	-12.3		0.00651 µM [falling, full curve, poor fit]
Cc1ccc(-n2c(SCC(=O)NCC3CCCO3)nc3c(c2=O)SCC3)cc1 (configuration not stated)	-4.32	4.11 µM [falling, single point]	
Cc1c(N=C2NC(=O)/C(=C/c3cccc([N+](=O)[O-])c3)S2)c(=O)n(-c2ccccc2)n1C	-13		
COc1cccc2cc(C(=O)Nc3cccc(C)n3)c(=O)oc12	32.9	29.1 µM [rising, single point]	29.1 µM [rising, single point]
c1ccc(OCCN2C3=NCCN3c3ccccc32)cc1	-21.2		0.0058 µM [falling, full curve, poor fit]
CCn1c(SCC(=O)OC(C)C)nnc1-c1ccccc1	10.7	0.366 µM [falling, full curve, poor fit]	
CCOc1ccc(CCNC(=O)c2cc3sc(Cl)cc3n2C)cc1OCC	-26.7		
COc1ccc(S[C@@H](CCN2CC[C@H](C)CCC2=O)c2ccccc2)cc1	-14.2	0.92 µM [rising, partial curve, poor fit]	
O=C(CCN1C(=O)c2ccccc2C1=O)Nc1sc2c(c1C(=O)NCC1CCCO1)CCC2 (configuration not stated)	119	29.1 µM [rising, single point]	20.6 µM [rising, single point]
CCC(=O)Nc1cc2nn(-c3ccc(OC)cc3)nc2cc1C	16.2	25.9 µM [rising, single point]	
COc1ccc(C(=O)NCc2nnc(SCC(=O)NCCc3ccccc3)o2)cc1	-8.26	29.1 µM [falling, single point]	1.84 µM [rising, partial curve]
CCN(CC)CCNCC(=O)N1c2ccccc2CCc2ccc(NC(=O)OC)cc21	-0.676		
COc1ccc(-c2nnc(-c3ccc(N(C)C)cc3)o2)cc1	9.93		
O=C(CSc1nc(-c2ccco2)cc(C(F)(F)F)n1)N1CCN(Cc2ccccc2)CC1	-36.6	29.1 µM [falling, single point]	18.4 µM [falling, single point]
O=C(Nc1nnc(C(F)(F)F)s1)c1ccc(N2C(=O)C3C4C=CC(C4)C3C2=O)cc1 (configuration not stated)	-44.2	18.4 µM [falling, partial curve]	23.1 µM [falling, single point]
CC(C)C(=O)NC(=S)Nc1ccc(CN2CCOCC2)cc1	-19.8	29.1 µM [falling, single point]	
O=C(NC1CCCCCC1)C(=S)NC1CCCCC1	-17.5	29.1 µM [rising, single point]	
COC(=O)c1c(NC(=O)c2ccco2)sc2c1C(C(=O)OC)CC2 (configuration not stated)	-7.7	3.66 µM [rising, partial curve]	
O=C(Cc1ccccc1)NCCSCc1ccccc1	6.35		
COCc1cccc(C2=CC(=O)C[C@H](c3ccc(F)cc3)C2)c1	10.1	0.00461 µM [rising, full curve, poor fit]	

Structure (SMILES)	cell number change [%]	AC50 [1]	AC50 [2]
CC1CCc2c(sc(NC(=O)CSc3ncn[nH]3)c2C#N)C1 (configuration not stated)	-0.387	0.116 µM [falling, full curve, poor fit]	
COc1cc(C2N3CC4(C)CN2CC(C)(C3)C4)ccc1O (configuration not stated)	17.2		6.51 µM [falling, partial curve]
CN(c1ccc(C(=O)Nc2ccc(F)cc2F)cc1)S(=O)(=O)c1ccccc1	2.93	29.1 µM [rising, single point]	
Cc1[nH]c2ccccc2c1C(=O)C(=O)NCCc1ccc(S(N)(=O)=O)cc1		2.91 µM [falling, single point]	3.26 µM [falling, single point]
O=C(/C=C/c1ccc(OC2CSC2)cc1)c1ccccc1	0.287		0.00651 µM [rising, full curve, poor fit]
NC(=O)C1CCN(CC(=O)Nc2cc(S(=O)(=O)N3CCOCC3)ccc2N2CCCC2)CC1	9.9	0.0291 µM [rising, full curve, poor fit]	
COc1ccc(C(=O)CSc2n[nH]c(N)n2)cc1	40.8		0.164 µM [rising, partial curve]
CCOc1ccc2nc(NC(=O)Nc3ccccc3)sc2c1	-22.2	2.91 µM [rising, partial curve]	
Cc1cc(-c2ccccc2)cc(-c2ccccc2)[n+]1C	-10		4.11 µM [rising, single point]
COc1ccc(N2CCN(C(=O)c3oc4ccccc4c3NC(=O)CCc3cc(OC)no3)CC2)cc1	-3.67		
COc1ccccc1NC(=O)c1ccc(-n2cncn2)nc1	23.5	4.61 µM [rising, single point]	
COc1ccc(OCC2CNC(=O)O2)cc1 (configuration not stated)		6.51 µM [falling, single point]	
Cc1ccc(NCc2n[nH]c(=S)n2-c2ccccc2)c(C)c1	13.8		0.00651 µM [rising, full curve, poor fit]
COc1cccc(NC(=O)C(c2ccccc2)N2CCN(CC(=O)N3CCOCC3)CC2)c1 (configuration not stated)	7.89	0.13 µM [falling, full curve, poor fit]	
COc1ccc(/C=N/Nc2ncnc3c2[nH]c2ccc(C)cc23)c(OC)c1OC	-19.3	6.51 µM [falling, single point]	
COc1ccccc1OCC(=O)NCc1n[nH]c(=O)c2ccccc12	-2.64	0.92 µM [falling, full curve, poor fit]	
CCOC(=O)C(=CNc1nc(-c2ccccc2)c(C(=O)Nc2ccc(-c3ccccc3)cc2)s1)C(=O)OCC	-18.3	0.731 µM [rising, full curve]	
CC(C)CC(=O)Nc1ccc(C(=O)COC(=O)CN2C(=O)NC3(CCCCC3C)C2=O)cc1 (configuration not stated)	-27.3		0.00146 µM [falling, full curve, poor fit]
C=CCOCC(O)CS(=O)(=O)Cc1ccc(Cl)cc1 (configuration not stated)	9.64	0.116 µM [falling, full curve, poor fit]	0.146 µM [falling, full curve, poor fit]
